Results taken from publication doi:10.1101/2021.08.02.454712.
These are yes or no findings as the source states them, for the method shown. Binding seen in cells or lysates may run through a third protein. These calls come from enrichment with a bait or labelling near it, and not all partners need be listed. Tags and fused reporters may be left off the sequences shown.

target: T1, PfHDP-GFP fusion protein (Plasmodium falciparum) (UniProt Q8IL04); assay: affinity purification with mass spectrometry
T1 sequence: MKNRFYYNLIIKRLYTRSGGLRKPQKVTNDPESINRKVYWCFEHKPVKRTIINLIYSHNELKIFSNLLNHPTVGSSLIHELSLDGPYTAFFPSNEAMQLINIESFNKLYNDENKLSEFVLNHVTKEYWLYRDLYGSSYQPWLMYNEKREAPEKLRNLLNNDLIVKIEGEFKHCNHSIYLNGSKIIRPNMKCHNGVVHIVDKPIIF

Substance	binding
PTEX88, endogenous in P. falciparum	binds
Trx2, endogenous in P. falciparum (from UniProt Q8IDP4 24-157)	binds
falcipain 2, endogenous in P. falciparum (from UniProt Q8I6U4) (enzyme)	binds
